PubChem BioAssay AID720505 | Drosophila RNAi Screening Center, 2013
Assay: 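Fly regulators or components of the CRAC channel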 (primary screen). Cell system: Drosophila S2R+ cells. Reagents: long dsRNA against Drosophila genes. Challenge: thapsigargin (2 µM) in calcium-free buffer to empty internal stores, then 2 mM calcium added back. Measurement: 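Stores emptied by 2 µM thapsigargin without calcium, then 2 mM calcium re-added; fluo-4 fluorescence followed by FLIPR in 384-well plates, per-well averaged endpoint, raw; two screen passes, some wells retested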. Direction: calcium signal and retest calcium signal: higher = more calcium entry after store depletion. Hit rule: 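Knock-downs counted as hits when calcium entry dropped relative to STIM1 positive and Rho1 negative controls present on each plate; roughly 1500 genes called, with reductions of differing size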. Calls: active = called as lowering calcium entry; inactive = not called.
The deposit covers about 20,000 reagents; shown is a random part of those with a known target gene and a result. In the full data, about 2,100 (10%) got an active call. 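Raw plate signals without normalisation; calls rest on control-based scores that were not deposited; replicate 2 separates called from uncalled poorly.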 A plus sign joins genes that one reagent is predicted to hit. Reagent sequences are not shown. The record does not give: the amount of reagent, the time to read-out.

What is on record for CG17977 [DRSC06700]?
calcium signal, replicate 1: 90.5; calcium signal, replicate 2: 86.2; Call: inactive

What did the screen give for Dsor1 (Downstream of raf1) [DRSC18462]?
calcium signal, replicate 1: 90.4; calcium signal, replicate 2: 103; Call: inactive

For clt (cricklet) [DRSC04621], how do the results read?
calcium signal, replicate 1: 66.8; calcium signal, replicate 2: 210; Call: inactive

Which result is listed for RabX5 [DRSC08608]?
calcium signal, replicate 1: 81.7; calcium signal, replicate 2: 93.9; Call: inactive

For Rsph4a (Radial spoke head protein 4a) [DRSC04338], what does the deposit list?
calcium signal, replicate 1: 169; calcium signal, replicate 2: 75.3; Call: inactive

With CtsL2 (Cathepsin L2) [DRSC06978], how do the results read?
calcium signal, replicate 1: 208; calcium signal, replicate 2: 159; Call: inactive

How did the screen score CG4768 [DRSC19917]?
calcium signal, replicate 1: 95.8; calcium signal, replicate 2: 94; retest calcium signal, replicate 1: 84.7; retest calcium signal, replicate 2: 107; Call: inactive

What is on record for fray (frayed) [DRSC16950]?
calcium signal, replicate 1: 136; calcium signal, replicate 2: 135; Call: inactive

For CG9083 + Tpc2 [DRSC04625], what does the deposit list?
calcium signal, replicate 1: 94; calcium signal, replicate 2: 77.6; Call: inactive

For Mhcl (Myosin heavy chain-like) [DRSC14216], what was measured?
calcium signal, replicate 1: 142; calcium signal, replicate 2: 160; Call: inactive

For Mhcl (Myosin heavy chain-like) [DRSC16753], what was measured?
calcium signal, replicate 1: 142; calcium signal, replicate 2: 135; Call: inactive

What is on record for CG18744 [DRSC15381]?
calcium signal, replicate 1: 158; calcium signal, replicate 2: 174; Call: inactive

For CG11398 [DRSC18625], what does the deposit list?
calcium signal, replicate 1: 125; calcium signal, replicate 2: 124; Call: inactive

What did the screen give for Vps35 (Vacuolar protein sorting 35) [DRSC04519]?
calcium signal, replicate 1: 88.3; calcium signal, replicate 2: 89; Call: inactive

For RpL8 (Ribosomal protein L8) [DRSC08532], what does the deposit list?
calcium signal, replicate 1: 51.4; calcium signal, replicate 2: 42.7; Call: active

For RpL8 (Ribosomal protein L8) [DRSC08695], what was measured?
calcium signal, replicate 1: 58.6; calcium signal, replicate 2: 72.3; Call: active

What did the screen give for Rab1 [DRSC16808]?
calcium signal, replicate 1: 116; calcium signal, replicate 2: 85.6; Call: inactive

What is on record for Snrk (SNF related kinase) [DRSC07192]?
calcium signal, replicate 1: 195; calcium signal, replicate 2: 123; Call: inactive

What is on record for Snrk (SNF related kinase) [DRSC23332]?
calcium signal, replicate 1: 103; calcium signal, replicate 2: 135; Call: inactive

What is on record for ND-B12 (NADH dehydrogenase (ubiquinone) B12 subunit) [DRSC04060]?
calcium signal, replicate 1: 212; calcium signal, replicate 2: 83.6; Call: inactive

For CG5002 [DRSC06911], what was measured?
calcium signal, replicate 1: 157; calcium signal, replicate 2: 113; Call: inactive

With CG32228 [DRSC22296], what was measured?
calcium signal, replicate 1: 129; calcium signal, replicate 2: 191; Call: inactive

For CG8321 [DRSC07148], what does the deposit list?
calcium signal, replicate 1: 234; calcium signal, replicate 2: 132; Call: inactive

With AP-1-2beta (Adaptor Protein complex 1/2, beta subunit) [DRSC19336], how do the results read?
calcium signal, replicate 1: 57.7; calcium signal, replicate 2: 95.9; Call: active

What is on record for Inx2 (Innexin 2) [DRSC18783]?
calcium signal, replicate 1: 173; calcium signal, replicate 2: 100; Call: inactive

For Drep4 (DNA fragmentation factor-related protein 4) [DRSC03408], how do the results read?
calcium signal, replicate 1: 90.8; calcium signal, replicate 2: 92.5; Call: inactive

What did the screen give for barc (barricade) [DRSC11792]?
calcium signal, replicate 1: 64.3; calcium signal, replicate 2: 100; Call: active

For CG30429 [DRSC04040], what was measured?
calcium signal, replicate 1: 110; calcium signal, replicate 2: 94.2; Call: inactive

With Gr39b (Gustatory receptor 39b) [DRSC01848], how do the results read?
calcium signal, replicate 1: 89.3; calcium signal, replicate 2: 4392; retest calcium signal, replicate 1: 75.6; retest calcium signal, replicate 2: 100; Call: inactive

What is on record for COX5BL (Cytochrome c oxidase subunit 5B-like) [DRSC02123]?
calcium signal, replicate 1: 139; calcium signal, replicate 2: 129; Call: inactive

Which result is listed for Galk (Galactokinase) [DRSC10500]?
calcium signal, replicate 1: 168; calcium signal, replicate 2: 117; Call: inactive

How did the screen score Elk (Eag-like K[+] channel) [DRSC07608]?
calcium signal, replicate 1: 150; calcium signal, replicate 2: 156; Call: inactive

For puf (puffyeye) [DRSC15875], what does the deposit list?
calcium signal, replicate 1: 254; calcium signal, replicate 2: 140; Call: inactive

With puf (puffyeye) [DRSC23167], what was measured?
calcium signal, replicate 1: 112; calcium signal, replicate 2: 109; Call: inactive

What is on record for Drep1 (DNA fragmentation factor-related protein 1) [DRSC07527]?
calcium signal, replicate 1: 114; calcium signal, replicate 2: 187; Call: inactive

Hits, of those listed so far:
RpL8 (Ribosomal protein L8) [DRSC08532]: calcium signal, replicate 1 = 51.4; calcium signal, replicate 2 = 42.7; Call = active
RpL8 (Ribosomal protein L8) [DRSC08695]: calcium signal, replicate 1 = 58.6; calcium signal, replicate 2 = 72.3; Call = active
AP-1-2beta (Adaptor Protein complex 1/2, beta subunit) [DRSC19336]: calcium signal, replicate 1 = 57.7; calcium signal, replicate 2 = 95.9; Call = active
barc (barricade) [DRSC11792]: calcium signal, replicate 1 = 64.3; calcium signal, replicate 2 = 100; Call = active
